Assay results as given in patent publication US12588678B2, “Oxazoline compound, synthesis method therefor and application thereof” (NANKAI UNIVERSITY, priority 2019, dated 2026).
Several values for one entry are separate records, joined by “and”; a condition that tells them apart may be missing. Equal entries are not always repeated. At least one read-out could not be matched to a standard name with certainty.

System: Tetranychus cinnabarinus mite eggs
Assay: Activity against mite eggs, dipping method on bean seedling leaves
Type: in vivo
Conditions: from regression y = ax + b
Source text: The assay examples are used to illustrate the acaricidal activity against Tetranychus cinnabarinus (mortality of mite larvae and mortality of mite eggs) of the compounds having the structure represented by formula (I), and the results are shown in tables 1 to 9, where mortality of mite larvae % =(number of dead mite larvae applied/total number of mite larvae applied)×100, and mortality of mite eggs %= (number of dead mite eggs applied/total number of mite eggs applied)×100.
Tetranychus cinnabarinus bred indoors on bean seedlings was used as a test subject by the dipping method. Move female adult mites onto the newly grown complete bean seedling leaves with two leaves, cut off the bean seedlings, place the bean seedlings in a greenhouse with illumination at 25° C. for laying eggs for 24 hours, then remove adult mites and keep mite eggs. After continuously culturing in the greenhouse for one day, completely soak the bean seedling leaves containing the acarid eggs into the prepared sample solution to be tested for 5-6 seconds by using tweezers, slightly throw off residual liquid, put the bean seedling leaves back to the culture cup, continuously culture for 4 days and then check the result. One of the plants was immersed in a solution containing no sample to be tested and the remaining additives were identical to the sample solution as a blank control. […]

CCOc1cc(C(C)(C)C)ccc1C1COC(c2c(F)cccc2F)=N1 (stereo not shown) [Etoxazole, reference compound]
LC50 (against mite eggs): 0.0950 µg/mL and 0.095 µg/mL
